Measured values taken from publication doi:10.1101/2021.01.19.427213.
Results are given in words; binding and its absence hold for the method and conditions named. In cells and extracts the contact can be indirect. Some entries that bind do so weakly or less than the wild type.

By UniProt entry, the sequences of proteins in these tests, tags left out.
UniProt Q00899: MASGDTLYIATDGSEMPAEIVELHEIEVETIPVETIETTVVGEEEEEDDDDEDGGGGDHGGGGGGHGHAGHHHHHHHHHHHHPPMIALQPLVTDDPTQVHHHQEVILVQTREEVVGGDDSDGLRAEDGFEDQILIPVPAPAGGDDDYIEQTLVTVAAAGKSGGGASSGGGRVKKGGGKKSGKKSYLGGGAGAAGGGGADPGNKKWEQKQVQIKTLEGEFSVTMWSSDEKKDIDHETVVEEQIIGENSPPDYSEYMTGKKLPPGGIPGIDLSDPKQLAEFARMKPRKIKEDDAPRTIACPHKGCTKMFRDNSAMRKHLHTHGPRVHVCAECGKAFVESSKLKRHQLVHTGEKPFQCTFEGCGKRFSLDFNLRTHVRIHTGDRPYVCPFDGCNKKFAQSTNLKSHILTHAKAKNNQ
UniProt Q8K4Q0: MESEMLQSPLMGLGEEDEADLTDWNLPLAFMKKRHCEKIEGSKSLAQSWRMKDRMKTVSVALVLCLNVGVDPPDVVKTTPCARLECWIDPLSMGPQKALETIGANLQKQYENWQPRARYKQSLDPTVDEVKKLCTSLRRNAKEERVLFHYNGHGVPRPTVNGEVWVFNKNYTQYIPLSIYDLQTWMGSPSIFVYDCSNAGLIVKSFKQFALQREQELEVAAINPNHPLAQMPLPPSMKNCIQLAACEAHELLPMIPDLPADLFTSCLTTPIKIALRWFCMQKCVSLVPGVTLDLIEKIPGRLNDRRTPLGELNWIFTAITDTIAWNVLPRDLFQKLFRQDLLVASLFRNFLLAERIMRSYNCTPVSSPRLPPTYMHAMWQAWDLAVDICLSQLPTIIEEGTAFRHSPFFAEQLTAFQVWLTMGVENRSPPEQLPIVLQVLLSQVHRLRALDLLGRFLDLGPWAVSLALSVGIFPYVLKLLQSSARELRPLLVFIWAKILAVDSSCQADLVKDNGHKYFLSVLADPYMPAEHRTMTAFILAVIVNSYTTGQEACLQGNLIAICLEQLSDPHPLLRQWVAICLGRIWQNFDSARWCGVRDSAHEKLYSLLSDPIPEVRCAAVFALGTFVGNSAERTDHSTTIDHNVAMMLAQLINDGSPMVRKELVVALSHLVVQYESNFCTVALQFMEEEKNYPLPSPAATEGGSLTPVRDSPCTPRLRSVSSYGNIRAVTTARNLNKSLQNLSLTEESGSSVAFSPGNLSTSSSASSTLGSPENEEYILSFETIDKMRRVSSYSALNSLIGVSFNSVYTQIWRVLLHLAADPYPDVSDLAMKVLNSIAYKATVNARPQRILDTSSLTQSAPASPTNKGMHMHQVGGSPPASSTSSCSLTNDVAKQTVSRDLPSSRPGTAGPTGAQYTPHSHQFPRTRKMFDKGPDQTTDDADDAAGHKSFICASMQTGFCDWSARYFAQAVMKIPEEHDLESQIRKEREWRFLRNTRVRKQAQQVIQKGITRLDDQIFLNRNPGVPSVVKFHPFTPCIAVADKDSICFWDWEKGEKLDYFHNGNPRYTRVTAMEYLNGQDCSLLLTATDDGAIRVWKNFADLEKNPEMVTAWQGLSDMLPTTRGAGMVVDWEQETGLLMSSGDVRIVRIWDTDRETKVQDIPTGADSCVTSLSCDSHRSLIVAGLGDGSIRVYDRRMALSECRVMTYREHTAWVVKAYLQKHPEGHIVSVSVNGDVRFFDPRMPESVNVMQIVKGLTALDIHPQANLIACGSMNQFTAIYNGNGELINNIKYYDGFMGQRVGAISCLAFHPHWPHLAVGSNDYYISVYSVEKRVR

Target: Yin Yang transcription factor 1 (YY1) (mouse (endogenous in heart)) (UniProt Q00899)
Test: co-IP

In the case of Raptor (from UniProt Q8K4Q0 1-1335), the binding is reported as “binds”.
